{"source": "the supplement of paper PMC8728848", "binders": {"B1": {"name": "Sp8391B-bot-388-20-388 (Bacteroides ovatus) (protein)", "chain": "GCQNNDENEQHYDNKLFISASNFTKEILFKAGDTNVETGLSVAIAKPEEHDIKVTMSPAPELLSTYKLAYYDETAVLLSEEHYSMPETSTTIKSGSIVSPELPIEFINTGELDIKTTYVLPVTIKSVEGIGVLQSAKTYYYVFRGASLINVVCNISRNRAYPDFKNDSKFNNLTENTMEILFKANSFPNTLNTLMGIESNYLLRIGDATIPNNQLQVATSVNNCTSADLQLESGKWYHVAVAFNKGNVKVYINGVEKLSGSTGKSSVSLGAKHTNEEDGSRCFWVGYSYKDDRYFDGVVSEVRIWNRALTAEEIQATNHFYTIEPESEGLIAYWKFDEGSGTVAKDYSVSGYDLTIEKEPKWESVSLPQ"}}, "assay_in_all_cases": "glycan array binding signal (z-score within array); higher = stronger binding", "conditions_in_all_cases": "glycan notation: IUPAC condensed, linker removed", "key": {"Fuc(a1-2)Gal": {"target": "Fuc(a1-2)Gal", "how_it_was_run": "(§1)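 Negative Z-scores can be read as non-binding. The Z-score is calculated within each array and then averaged across arrays of one protein sequence at different concentrations or buffers and across linkers. Arrays, 3228 in all, were curated from the Consortium for Functional Glycomics database and kept only where the protein sequence was available.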"}, "Fuc(a1-2)Gal(b1-3)GalNAc": {"target": "Fuc(a1-2)Gal(b1-3)GalNAc", "how_it_was_run": "as §1"}, "[1]": {"target": "Fuc(a1-2)Gal(b1-3)GalNAc(a1-3)[Fuc(a1-2)]Gal(b1-4)Glc", "how_it_was_run": "as §1"}, "[2]": {"target": "Fuc(a1-2)Gal(b1-3)GalNAc(a1-3)[Fuc(a1-2)]Gal(b1-4)GlcNAc", "how_it_was_run": "as §1"}, "[3]": {"target": "Fuc(a1-2)Gal(b1-3)GalNAc(b1-3)Gal", "how_it_was_run": "as §1"}, "[4]": {"target": "Fuc(a1-2)Gal(b1-3)GalNAc(b1-3)Gal(a1-4)Gal(b1-4)Glc", "how_it_was_run": "as §1"}, "[5]": {"target": "Fuc(a1-2)Gal(b1-3)GalNAc(b1-4)[Neu5Ac(a2-3)]Gal(b1-4)Glc", "how_it_was_run": "as §1"}, "Fuc(a1-2)Gal(b1-3)GlcNAc": {"target": "Fuc(a1-2)Gal(b1-3)GlcNAc", "how_it_was_run": "as §1"}, "[6]": {"target": "Fuc(a1-2)Gal(b1-3)GlcNAc(b1-2)Man(a1-3)[Fuc(a1-2)Gal(b1-3)GlcNAc(b1-2)Man(a1-6)]Man(b1-4)GlcNAc(b1-4)GlcNAc", "how_it_was_run": "as §1"}, "[7]": {"target": "Fuc(a1-2)Gal(b1-3)GlcNAc(b1-2)Man(a1-3)[Fuc(a1-2)Gal(b1-3)GlcNAc(b1-2)Man(a1-6)]Man(b1-4)GlcNAc(b1-4)[Fuc(a1-6)]GlcNAc", "how_it_was_run": "as §1"}, "[8]": {"target": "Fuc(a1-2)Gal(b1-3)GlcNAc(b1-3)Gal(b1-4)Glc", "how_it_was_run": "as §1"}, "[9]": {"target": "Fuc(a1-2)Gal(b1-3)GlcNAc(b1-3)GalNAc", "how_it_was_run": "as §1"}, "[10]": {"target": "Fuc(a1-2)Gal(b1-3)GlcNAc(b1-3)[Fuc(a1-2)Gal(b1-3)GlcNAc(b1-6)]GalNAc", "how_it_was_run": "as §1"}, "[11]": {"target": "Fuc(a1-2)Gal(b1-3)GlcNAc(b1-3)[Gal(b1-4)GlcNAc(b1-6)]Gal(b1-4)Glc", "how_it_was_run": "as §1"}, "[12]": {"target": "Fuc(a1-2)Gal(b1-3)GlcNAc(b1-3)[Neu5Ac(a2-6)Gal(b1-4)GlcNAc(b1-6)]Gal(b1-4)Glc", "how_it_was_run": "as §1"}, "[13]": {"target": "Fuc(a1-2)Gal(b1-3)GlcNAc6S", "how_it_was_run": "as §1"}, "[14]": {"target": "Fuc(a1-2)Gal(b1-3)[Fuc(a1-4)]GlcNAc", "how_it_was_run": "as §1"}, "[15]": {"target": "Fuc(a1-2)Gal(b1-3)[Fuc(a1-4)]GlcNAc(b1-2)Man(a1-3)[Fuc(a1-2)Gal(b1-3)[Fuc(a1-4)]GlcNAc(b1-2)Man(a1-3)]Man(b1-4)GlcNAc(b1-4)GlcNAc", "how_it_was_run": "as §1"}, "[16]": {"target": "Fuc(a1-2)Gal(b1-3)[Fuc(a1-4)]GlcNAc(b1-2)Man(a1-3)[Fuc(a1-2)Gal(b1-3)[Fuc(a1-4)]GlcNAc(b1-2)Man(a1-6)]Man(b1-4)GlcNAc(b1-4)[Fuc(a1-6)]GlcNAc(b1-4)[Fuc(a1-6)]GlcNAc", "how_it_was_run": "as §1"}, "[17]": {"target": "Fuc(a1-2)Gal(b1-3)[Fuc(a1-4)]GlcNAc(b1-3)[Fuc(a1-3)[Gal(b1-4)]GlcNAc(b1-6)]Gal(b1-4)Glc", "how_it_was_run": "as §1"}, "[18]": {"target": "Fuc(a1-2)Gal(b1-3)[Fuc(a1-4)]GlcNAc(b1-3)[Gal(b1-4)GlcNAc(b1-6)]Gal(b1-4)Glc", "how_it_was_run": "as §1"}, "Fuc(a1-2)Gal(b1-4)Glc": {"target": "Fuc(a1-2)Gal(b1-4)Glc", "how_it_was_run": "as §1"}, "Fuc(a1-2)Gal(b1-4)Glc6S": {"target": "Fuc(a1-2)Gal(b1-4)Glc6S", "how_it_was_run": "as §1"}, "Fuc(a1-2)Gal(b1-4)GlcNAc": {"target": "Fuc(a1-2)Gal(b1-4)GlcNAc", "how_it_was_run": "as §1"}, "[19]": {"target": "Fuc(a1-2)Gal(b1-4)GlcNAc(b1-2)Man", "how_it_was_run": "as §1"}, "[20]": {"target": "Fuc(a1-2)Gal(b1-4)GlcNAc(b1-2)Man(a1-3)[Fuc(a1-2)Gal(b1-4)GlcNAc(b1-2)Man(a1-6)]Man(b1-4)GlcNAc(b1-4)GlcNAc", "how_it_was_run": "as §1"}, "[21]": {"target": "Fuc(a1-2)Gal(b1-4)GlcNAc(b1-2)Man(a1-3)[Fuc(a1-2)Gal(b1-4)GlcNAc(b1-2)Man(a1-6)]Man(b1-4)GlcNAc(b1-4)[Fuc(a1-6)]GlcNAc", "how_it_was_run": "as §1"}, "[22]": {"target": "Fuc(a1-2)Gal(b1-4)GlcNAc(b1-2)[Fuc(a1-2)Gal(b1-4)GlcNAc(b1-4)]Man(a1-3)[Fuc(a1-2)Gal(b1-4)GlcNAc(b1-2)Man(a1-6)]Man(b1-4)GlcNAc(b1-4)GlcNAc", "how_it_was_run": "as §1"}, "[23]": {"target": "Fuc(a1-2)Gal(b1-4)GlcNAc(b1-3)Gal(b1-4)GlcNAc", "how_it_was_run": "as §1"}, "[24]": {"target": "Fuc(a1-2)Gal(b1-4)GlcNAc(b1-3)Gal(b1-4)GlcNAc(b1-2)Man(a1-3)[Fuc(a1-2)Gal(b1-4)GlcNAc(b1-3)Gal(b1-4)GlcNAc(b1-2)Man(a1-6)]Man(b1-4)GlcNAc(b1-4)GlcNAc", "how_it_was_run": "as §1"}}, "note": "Some of the results follow."}
{"binder": "B1", "values": [{"measurement": "glycan array binding signal (z-score)", "setting": "Fuc(a1-2)Gal", "value": -0.522}, {"measurement": "glycan array binding signal (z-score)", "setting": "Fuc(a1-2)Gal(b1-3)GalNAc", "value": -0.893}, {"measurement": "glycan array binding signal (z-score)", "setting": "[1]", "value": -0.312}, {"measurement": "glycan array binding signal (z-score)", "setting": "[2]", "value": -0.275}, {"measurement": "glycan array binding signal (z-score)", "setting": "[3]", "value": 0.241}, {"measurement": "glycan array binding signal (z-score)", "setting": "[4]", "value": -1.11}, {"measurement": "glycan array binding signal (z-score)", "setting": "[5]", "value": 0.477}, {"measurement": "glycan array binding signal (z-score)", "setting": "Fuc(a1-2)Gal(b1-3)GlcNAc", "value": -0.986}, {"measurement": "glycan array binding signal (z-score)", "setting": "[6]", "value": 2.69}, {"measurement": "glycan array binding signal (z-score)", "setting": "[7]", "value": -0.241}, {"measurement": "glycan array binding signal (z-score)", "setting": "[8]", "value": 0.015}, {"measurement": "glycan array binding signal (z-score)", "setting": "[9]", "value": -0.855}, {"measurement": "glycan array binding signal (z-score)", "setting": "[10]", "value": 1.16}, {"measurement": "glycan array binding signal (z-score)", "setting": "[11]", "value": -0.322}, {"measurement": "glycan array binding signal (z-score)", "setting": "[12]", "value": -0.282}, {"measurement": "glycan array binding signal (z-score)", "setting": "[13]", "value": -0.483}, {"measurement": "glycan array binding signal (z-score)", "setting": "[14]", "value": -0.823}, {"measurement": "glycan array binding signal (z-score)", "setting": "[15]", "value": 1.35}, {"measurement": "glycan array binding signal (z-score)", "setting": "[16]", "value": 0.399}, {"measurement": "glycan array binding signal (z-score)", "setting": "[17]", "value": -0.358}, {"measurement": "glycan array binding signal (z-score)", "setting": "[18]", "value": 1.29}, {"measurement": "glycan array binding signal (z-score)", "setting": "Fuc(a1-2)Gal(b1-4)Glc", "value": -0.701}, {"measurement": "glycan array binding signal (z-score)", "setting": "Fuc(a1-2)Gal(b1-4)Glc6S", "value": 1.62}, {"measurement": "glycan array binding signal (z-score)", "setting": "Fuc(a1-2)Gal(b1-4)GlcNAc", "value": -0.588}, {"measurement": "glycan array binding signal (z-score)", "setting": "[19]", "value": -1.39}, {"measurement": "glycan array binding signal (z-score)", "setting": "[20]", "value": 0.667}, {"measurement": "glycan array binding signal (z-score)", "setting": "[21]", "value": 1.1}, {"measurement": "glycan array binding signal (z-score)", "setting": "[22]", "value": 0.922}, {"measurement": "glycan array binding signal (z-score)", "setting": "[23]", "value": 0.428}, {"measurement": "glycan array binding signal (z-score)", "setting": "[24]", "value": -0.411}]}
